Experimental data published in paper PMC7660924.
These are yes or no findings as the source states them, for the method shown. Tags and fused reporters may be left off the sequences shown.

The chains behind the UniProt entries cited, without tags or fusion partners. Residues count along the entry.
UniProt Q94CL7, residues 208-362: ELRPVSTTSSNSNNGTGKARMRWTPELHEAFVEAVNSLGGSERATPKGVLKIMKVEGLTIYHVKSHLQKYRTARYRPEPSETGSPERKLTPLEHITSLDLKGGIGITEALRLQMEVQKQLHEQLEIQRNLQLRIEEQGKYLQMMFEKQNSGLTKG

Tests used:
Assay in all cases: two-hybrid; yeast strain AH109; GAL4 activation domain fusions as prey, GAL4 DNA-binding domain fusions as bait; growth on SD/-Leu/-Trp/-His/-Ade, 30°C, 5 d
[1] = biological target: T1, HRS1 HOMOLOG 4 (HHO4), full length, yeast two-hybrid fusion (Arabidopsis thaliana) (UniProt Q9ZQ85)
T1 sequence: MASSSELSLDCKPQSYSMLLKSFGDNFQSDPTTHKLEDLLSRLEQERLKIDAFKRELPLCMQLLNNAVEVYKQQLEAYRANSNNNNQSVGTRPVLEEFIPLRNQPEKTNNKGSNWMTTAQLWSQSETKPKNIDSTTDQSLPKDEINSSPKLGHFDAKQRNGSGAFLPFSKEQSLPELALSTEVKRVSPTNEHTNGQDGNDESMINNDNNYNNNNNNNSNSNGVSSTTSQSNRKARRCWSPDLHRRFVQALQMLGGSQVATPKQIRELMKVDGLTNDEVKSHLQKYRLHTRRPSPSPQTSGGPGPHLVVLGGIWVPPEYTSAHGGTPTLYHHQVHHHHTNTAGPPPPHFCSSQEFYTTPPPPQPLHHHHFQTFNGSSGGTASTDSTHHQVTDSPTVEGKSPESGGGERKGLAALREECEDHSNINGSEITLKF

[2] = biological target: T2, HRS1 HOMOLOG 6 (HHO6), full length, yeast two-hybrid fusion (Arabidopsis thaliana) (UniProt Q9FX84)
T2 sequence: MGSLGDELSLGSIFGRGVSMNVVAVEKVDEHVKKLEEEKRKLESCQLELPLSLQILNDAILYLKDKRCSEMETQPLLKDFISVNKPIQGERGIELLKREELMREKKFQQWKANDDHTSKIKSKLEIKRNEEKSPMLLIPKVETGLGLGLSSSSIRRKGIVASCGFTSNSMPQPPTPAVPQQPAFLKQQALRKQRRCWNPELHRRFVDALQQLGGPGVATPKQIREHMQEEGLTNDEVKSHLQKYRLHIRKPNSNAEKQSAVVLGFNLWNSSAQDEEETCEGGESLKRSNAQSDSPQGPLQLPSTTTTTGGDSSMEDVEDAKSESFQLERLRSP

[3] = biological target: T3, HRS1 HOMOLOG 5 (HHO5), full length, yeast two-hybrid fusion (Arabidopsis thaliana) (UniProt F4JRB0)
T3 sequence: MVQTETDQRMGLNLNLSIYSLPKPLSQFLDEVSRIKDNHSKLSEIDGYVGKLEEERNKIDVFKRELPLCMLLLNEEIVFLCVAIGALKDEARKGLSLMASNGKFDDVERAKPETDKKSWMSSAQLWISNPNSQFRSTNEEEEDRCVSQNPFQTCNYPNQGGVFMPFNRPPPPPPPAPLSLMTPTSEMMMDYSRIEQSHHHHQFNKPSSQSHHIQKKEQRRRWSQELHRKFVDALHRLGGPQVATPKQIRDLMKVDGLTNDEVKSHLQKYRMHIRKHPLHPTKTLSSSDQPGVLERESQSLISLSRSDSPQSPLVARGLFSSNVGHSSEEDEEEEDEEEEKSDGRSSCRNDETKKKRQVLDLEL

Measured: binding

truncated PHOSPHATE STARVATION RESPONSE 1 (PHR1) carrying the GARP domain and CCD (208-362 aa), yeast two-hybrid fusion (from UniProt Q94CL7 208-362) (domain or fragment)
no binding: all assays above
